According to PubChem BioAssay AID588590 (National Center for Advancing Translational Sciences (NCATS), 2011):
Out of some 390,000 compounds screened, about 4,000 (1%) were called active. The inconclusive results got no clear call from the source; some entries with a clear call stand among them for comparison. Calls follow the shape of the dose curve; as a rule, active = well fitted inhibition curve with a large enough effect; inconclusive = small, poorly fitted or top-dose-only effect, or another doubt; inactive = no such curve, though single readings can be large or run the other way. Potencies of inconclusive entries are doubtful fits and often do not repeat.

Chains of the proteins cited; added tags and fusions are not shown. Lines headed by an entry give the natural chain unless they say otherwise; changes in a name come on top.
UniProt Q9UNA4: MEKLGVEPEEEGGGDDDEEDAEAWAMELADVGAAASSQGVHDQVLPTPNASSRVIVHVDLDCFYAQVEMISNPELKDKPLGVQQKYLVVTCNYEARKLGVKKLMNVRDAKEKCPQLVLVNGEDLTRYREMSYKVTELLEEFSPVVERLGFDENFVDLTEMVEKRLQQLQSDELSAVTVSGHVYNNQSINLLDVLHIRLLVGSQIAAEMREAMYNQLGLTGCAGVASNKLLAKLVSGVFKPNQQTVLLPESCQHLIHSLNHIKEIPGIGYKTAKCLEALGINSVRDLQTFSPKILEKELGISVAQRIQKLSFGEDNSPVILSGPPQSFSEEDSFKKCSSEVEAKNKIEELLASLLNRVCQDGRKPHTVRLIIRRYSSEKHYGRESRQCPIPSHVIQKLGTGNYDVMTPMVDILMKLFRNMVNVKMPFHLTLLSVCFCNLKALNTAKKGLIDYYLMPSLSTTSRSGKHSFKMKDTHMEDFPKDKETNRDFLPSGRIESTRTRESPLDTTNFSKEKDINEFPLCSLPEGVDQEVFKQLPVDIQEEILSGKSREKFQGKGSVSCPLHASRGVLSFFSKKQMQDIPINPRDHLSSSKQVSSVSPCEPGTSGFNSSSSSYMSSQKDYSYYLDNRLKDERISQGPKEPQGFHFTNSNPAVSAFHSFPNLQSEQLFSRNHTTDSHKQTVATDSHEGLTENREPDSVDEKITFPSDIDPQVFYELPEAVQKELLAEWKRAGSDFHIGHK

Target: DNA polymerase iota (Homo sapiens) (UniProt Q9UNA4)
Test: qHTS for Inhibitors of Polymerase Iota
Conditions: Pol iota fluorescent replication assay, 10 min; series mostly up to 115 µM
Method in brief: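 Pol iota at 10 nM preincubated 15 min with compounds at room temperature; reaction started with fluorescent substrate, 50 nM final. Fluorescence read kinetically at 0 and 10 min; buffer-only wells as negative control.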
Potency is read from the fitted curve at half-maximal effect.

Potency, inactive:
COc1ccc(C(=O)/C=C/c2cc(OC)c(O)c(OC)c2)c(F)c1
O=C(CSc1ccc(-c2cccs2)nn1)Nc1cccc(F)c1
O=C(N/N=C/c1cccc(OC(=O)c2ccccc2Cl)c1)c1cccnc1
COc1cccc(-c2nc(CS(=O)(=O)CC(=O)Nc3cc(F)ccc3F)c(C)o2)c1
COc1cc(-c2noc(-c3ccc(N4CCOCC4)c([N+](=O)[O-])c3)n2)cc(OC)c1OC
Cc1c2cnn(-c3ccccc3)c(=O)c2c(C)n1CC(=O)N1CCN(c2ccc(F)cc2)CC1
COc1ccc(NC(=S)NC(NC(=O)c2ccccc2Cl)C(Cl)(Cl)Cl)c([N+](=O)[O-])c1 (stereo not drawn)
COc1ccc2nc3sc(C(=O)N4CCN(c5ccccc5)CC4)cc3cc2c1
COC(=O)c1ccc(NC2=C(Cl)C(=O)OC2OC(=O)c2ccccc2)cc1 (stereo not drawn)
COc1ccc2cc3cc(C(=O)NCCc4ccccc4)sc3nc2c1Cl
O=C(C[n+]1cc(Br)cc(Br)c1)c1ccc2ccccc2c1
CCN(CC)S(=O)(=O)c1cccc(NC(=O)COC(=O)C2=COCCO2)c1
Cc1nn(C)c2c1c(-c1ccccc1)cc(=O)n2CC(=O)NC(C)(C)C
CCOC(=O)c1ccccc1NC(=O)CSc1ncc2c(n1)-c1ccccc1N(CC)S2(=O)=O
CN(C)CCN(Cc1ccc(Cl)cc1)c1ccccn1

Potency, inconclusive:
O=C(CSc1nc(O)c(C/C=C/c2ccccc2)c(=O)[nH]1)Nc1cccc(F)c1 39.8 µM [inhibitor, single point]
O=C1C2CC=C(Cl)CC2C(=O)N1c1ncn[nH]1 (stereo not drawn) 25.1 µM [inhibitor, partial curve, poor fit]
COc1ccc(-c2cc(C)no2)cc1S(=O)(=O)N1CC(C)Oc2ccccc21 (stereo not drawn) 89.1 µM [inhibitor, single point]
COC(=O)C1CCN(C(=O)/C=C/c2ccccc2)CC1 112 µM [inhibitor, partial curve, poor fit]
O=C(NCc1ccco1)c1c[nH]c2ccc(S(=O)(=O)Nc3ccc(F)cc3F)cc2c1=O 89.1 µM [inhibitor, single point]
CCN1c2ccccc2N(C)C1(C)c1ccccc1 (stereo not drawn) 31.6 µM [inhibitor, partial curve]
CN(C)C(=O)c1ccc(NC(=O)COC(=O)C2=COCCO2)cc1 89.1 µM [inhibitor, single point]
O=C(CSc1nnc(Nc2ccccc2)s1)NCc1ccco1 89.1 µM [inhibitor, partial curve, poor fit]
O=C1[C@H]2[C@@H](/C=C/c3ccccc3)N3C(=O)CN(CCO)C(=O)[C@@]3(Cc3ccccc3)[C@H]2C(=O)N1c1ccccc1 39.8 µM [inhibitor, partial curve, poor fit]
CCCNC(=O)CS(=O)(=O)Cc1nc(-c2cccc(OC)c2)oc1C 39.8 µM [inhibitor, partial curve, poor fit]
CCN(CC)Cc1c(C(=O)N/N=C/c2cccnc2)nnn1-c1nonc1N 70.8 µM [inhibitor, partial curve, poor fit]
Cc1c(NC(C)C)c(=O)n(-c2ccccc2)n1C 10 µM [inhibitor, full curve, poor fit]
COc1ccc2ccccc2c1C1CC(=O)N2CN(C3CCCCC3)CSC2=C1C#N (stereo not drawn) 8.91 µM [inhibitor, full curve, poor fit]
COC(=O)c1ccc([C@H]2Nc3ccc(S(=O)(=O)Nc4ccc(C)cc4)cc3[C@H]3C=CC[C@H]32)cc1 89.1 µM [inhibitor, single point]
CC(C)OC(=O)c1ccc(NC(=O)Cn2c(-c3nonc3N)nc3ccccc32)cc1 3.16 µM [inhibitor, partial curve, poor fit]
O=C1CC(c2ccco2)CC(O)=C1C=Nc1cc(Cl)ccc1O (stereo not drawn) 14.1 µM [inhibitor, full curve, poor fit]
CC(C)(C)c1ccc(S(=O)(=O)c2cnc(SCC(=O)Nc3ccc(F)c(Cl)c3)[nH]c2=O)cc1 56.2 µM [inhibitor, partial curve, poor fit]
COc1ccc(-c2nnc(SCC(=O)NCc3ccccc3)nc2-c2ccc(OC)c(OC)c2)cc1OC 112 µM [inhibitor, partial curve, poor fit]
Cc1nc2ccccc2c(=O)n1/N=C/c1ccc2ccccc2c1O 17.8 µM [inhibitor, full curve, poor fit]
O=C(O)C1CCCCC1C(=O)Nc1ccc(F)c(F)c1 (stereo not drawn) 70.8 µM [inhibitor, partial curve, poor fit]
C=CCc1ccccc1OCC(=O)OCCNC(=O)c1cccnc1 5.62 µM [inhibitor, full curve, poor fit]
CCN1C(=O)[C@H]2[C@@H](c3ccc(-c4ccc(Cl)c(Cl)c4)cc3)N[C@@](Cc3ccccc3)(C(=O)OC)[C@H]2C1=O 3.55 µM [inhibitor, partial curve, poor fit]
CC(C)(C)n1ncc2c(=O)n(Cc3ccc(C#N)cc3)cnc21 100 µM [inhibitor, partial curve, poor fit]
Cc1ccc(Cc2c(C)nc3nc(SCC(=O)NCc4ccco4)nn3c2C)cc1 50.1 µM [inhibitor, partial curve, poor fit]
CC(C)(C)NC(=O)CSc1nc(O)cc(=O)n1-c1ccccc1F 20 µM [inhibitor, full curve]
Cc1cc(C(=O)N/N=C/c2ccc(Br)o2)n[nH]1 70.8 µM [inhibitor, partial curve]
CCC(OCC(O)CN1CCN(CCN2C(=O)c3cccc4cccc(c34)C2=O)CC1)c1ccccc1 (stereo not drawn) 100 µM [inhibitor, partial curve, poor fit]
CCC1C/C(=C\c2cc(OC)c(OC)cc2OC)C(=O)/C(=C/c2cc(OC)c(OC)cc2OC)C1 (stereo not drawn) 100 µM [inhibitor, partial curve, poor fit]
COc1ccc(N2C(=O)[C@@H]3[C@H](C2=O)[C@H]2c4ccccc4C=CN2[C@@H]3C(=O)Nc2ccccc2)cc1 10 µM [inhibitor, full curve, poor fit]
Cc1ccc2cccc(S(=O)(=O)Nc3ccc4c(c3)OCO4)c2n1 22.4 µM [inhibitor, partial curve, poor fit]
CC1(C)CC(=O)C(C(C2=C(O)CC(C)(C)CC2=O)c2ccc(O)c([N+](=O)[O-])c2)=C(O)C1 28.2 µM [inhibitor, partial curve, poor fit]
Cc1cc(Nc2ccc(F)cc2C)n2ncnc2n1 0.631 µM [inhibitor, full curve, poor fit]
N#C/C(=C\c1ccc(Br)cc1)c1nc(-c2cc3cc(Br)ccc3oc2=O)cs1 100 µM [inhibitor, partial curve, poor fit]
COc1cc(/C=N/NC(=O)C(=O)N2CCCC2)ccc1O 56.2 µM [inhibitor, partial curve, poor fit]
COc1cccc(-c2cc(C(=O)O)no2)c1 8.91 µM [inhibitor, partial curve]
O=C(COc1cc2oc(=O)cc(-c3ccccc3)c2cc1Cl)NC(Cc1c[nH]c2ccc(O)cc12)C(=O)O (stereo not drawn) 56.2 µM [inhibitor, partial curve, poor fit]
Cc1n[nH]c(C)c1S(=O)(=O)N1CCC(C(=O)Nc2cccc(F)c2)CC1 79.4 µM [inhibitor, single point]
Cc1ccc([N+](=O)[O-])cc1S(=O)(=O)Nc1ccc(C(=O)NCC2CCCO2)cc1 (stereo not drawn) 79.4 µM [inhibitor, single point]
Cc1cccc(C)c1OCCOCCN1CCN(C)CC1 39.8 µM [inhibitor, partial curve, poor fit]
CCN1C(=O)CC(c2ccco2)Sc2ccccc21 (stereo not drawn) 79.4 µM [inhibitor, partial curve]
CCCc1nc(SCC(=O)Nc2nnc(CC)s2)c2c(C)c(C)sc2n1 89.1 µM [inhibitor, partial curve]
O=C(c1ccc(NS(=O)(=O)c2ccc3c(c2)OCCO3)cc1)N1CCCCC1 100 µM [inhibitor, single point]
COc1cc2nc(SCc3ccc(F)cc3)n3nc(CCn4c(C)nc5ccccc54)nc3c2cc1OC 50.1 µM [inhibitor, partial curve, poor fit]
NC(=O)c1ccsc1NC(=O)COc1ccccc1 22.4 µM [inhibitor, single point]

Random excerpt: 5 compounds from above
Potency, inconclusive:
CCN(CC)Cc1c(C(=O)N/N=C/c2cccnc2)nnn1-c1nonc1N 70.8 µM [inhibitor, partial curve, poor fit]
O=C1CC(c2ccco2)CC(O)=C1C=Nc1cc(Cl)ccc1O (stereo not drawn) 14.1 µM [inhibitor, full curve, poor fit]
COc1ccc(-c2cc(C)no2)cc1S(=O)(=O)N1CC(C)Oc2ccccc21 (stereo not drawn) 89.1 µM [inhibitor, single point]
CCC1C/C(=C\c2cc(OC)c(OC)cc2OC)C(=O)/C(=C/c2cc(OC)c(OC)cc2OC)C1 (stereo not drawn) 100 µM [inhibitor, partial curve, poor fit]
Cc1n[nH]c(C)c1S(=O)(=O)N1CCC(C(=O)Nc2cccc(F)c2)CC1 79.4 µM [inhibitor, single point]

Following part:

Potency, active:
COc1ccc(-c2cnnc(N/N=C/c3ccc(O)c(O)c3)n2)cc1 8.91 µM
Cc1ccc(C(=O)CC(SCC(=O)O)c2ccc([N+](=O)[O-])cc2)cc1 (stereo not drawn) 10 µM
CC(=O)c1ccc2c(c1)C1C=CCC1C(c1ccncc1)N2 (stereo not drawn) 31.6 µM
Cc1ccc(C(=O)O)cc1-n1c(C)cc(C=O)c1C 28.2 µM
